# Data reported in the supplement of paper PMC5949888.
# Most values lie at the floor of the assay. Slopes are relative: functional sequences can read slightly below zero.
# System: Saccharomyces cerevisiae PS128 hsf1 delta, HSF1(1-493) fusion
# Experiment: growth estimate (transactivation domain function in HSF1 fusion, heat-shock survival) (a.u. (slope of normalised read count over time)); higher = stronger growth at 37°C, i.e. more transactivation activity
# Conditions: library: random library
row,Substance,growth estimate
1,WKVI,< -0.25
2,WKVLPVRSPVSASFWHGWRL,< -0.25
3,WLAISIRNTYCFFDPRAKAR,< -0.25
4,WLEPLGQIQAYSIASTVYGV,< -0.25
5,WLGIGWLHAIGYAGVGSVVS,< -0.25
6,WLGRFCARNAFLS,< -0.25
7,WLGRRAGSGEVLNGITQLRS,< -0.25
8,WLGSSVQHVIRPHRGAQSLT,-0.2
9,WLKAWSC,-0.239
10,WLKGLRIAEHKNMCGHDHWM,< -0.25
11,WLNRQKRERVLGRERGNVLS,< -0.25
12,WLPKGVPQRQRC,< -0.25
13,WLPVNDVALGNQA,< -0.25
14,WLQGAGICV,< -0.25
15,WLRGASSIESE,< -0.25
16,WLRRRCHTHKGNE,< -0.25
17,WLS,< -0.25
18,WLSFNAVSLKSLEYPTGHKS,< -0.25
19,WLSQ,< -0.25
20,WLSRREHALSGKVLIGWVPL,< -0.25
21,WLSVCLRANSKRVGPVPPVA,< -0.25
22,WLTPSTR,< -0.25
23,WLVSRVDSGRREVHALFRHP,< -0.25
24,WMGV,< -0.25
25,WNAEIWLRRRGLIGDGTV,< -0.25

# 6 records picked at random from the list so far:
row,Substance,growth estimate
5,WLGIGWLHAIGYAGVGSVVS,< -0.25
11,WLNRQKRERVLGRERGNVLS,< -0.25
4,WLEPLGQIQAYSIASTVYGV,< -0.25
7,WLGRRAGSGEVLNGITQLRS,< -0.25
6,WLGRFCARNAFLS,< -0.25
13,WLPVNDVALGNQA,< -0.25

# The listing continues:

row,Substance,growth estimate
1,WNAELLRMGWDQSGIRRGAG,< -0.25
2,WNAGRAIIDVTYACYFLSAP,< -0.25
3,WNDVYLLQHWA,< -0.25
4,WNPSVNARSMSCVESKPE,< -0.25
5,WNSPDTAYPQAARDMFRSR,< -0.25
6,WNVFIASRLFSAGNSS,< -0.25
7,WPANRRTLRHLPVRGRLGQH,< -0.25
8,WPAVVIVPEQVLSCQGSRSQ,< -0.25
9,WPGRGTLEVMLELRVGHVFR,< -0.25
10,WPGRVEMLARVDYTDQRTKR,< -0.25
11,WPHATRTR,< -0.25
12,WPIIESQQHQ,< -0.25
13,WPKPLLMAKFNQERS,< -0.25
14,WPLRVAKARTMKHSCKISRR,< -0.25
15,WPLYLASQSVNLY,-0.219
16,WPNPIVGISPAEKRKRLVVG,< -0.25
17,WPP,< -0.25
18,WPR,-0.246
19,WPRGVQYPVNRAYYGNGSHV,< -0.25
20,WPTRAKIKRLL,< -0.25
21,WPTSTFKCRPQQLSPSCSSC,< -0.25
22,WPTWYTAVVSVTERRRDLHR,< -0.25
23,WPVIVEVRAAARSYDPRSLG,< -0.25
24,WPY,< -0.25
25,WPYSG,< -0.25

row,Substance,growth estimate
1,WQDDFA,< -0.25
2,WQEFRQLTRGFGGTYSSIDA,< -0.25
3,WQHAGGSLPVH,< -0.25
4,WQLLLDTSKFMALQHTVVWW,< -0.25
5,WQLRSSAEILPSTKAYSAIG,< -0.25
6,WQSY,< -0.25
7,WQTGLEGTCNRVSLTHVSIR,< -0.25
8,WQVLYSVNVCTKRGYRRLNG,< -0.25
9,WRATLAPVCD,< -0.25
10,WRCATWVNIHGPRRFRSRPN,-0.0768
11,WRFFV,< -0.25
12,WRFYQRVRIILQAG,< -0.25
13,WRGRINWLH,< -0.25
14,WRKGQTPLVHQWTTKCMPLA,< -0.25
15,WRKSKGAWK,< -0.25
16,WRNLSLL,< -0.25
17,WRR,-0.246
18,WRRKFICVRQEKTLAKCQGL,< -0.25
19,WRRTTKLSNFSPDTTGADGH,< -0.25
20,WRSVVRGVR,< -0.25
21,WRVLEKIEIEVPGR,< -0.25
22,WSAGSFKLRADLRCITGSPG,< -0.25
23,WSENAVGSHYSQEDATTRTI,< -0.25
24,WSESRTGDILESPCH,< -0.25
25,WSGGATQSLS,< -0.25

row,Substance,growth estimate
1,WSGICPVGGVWRGPRWTPWR,< -0.25
2,WSGMG,< -0.25
3,WSHSGELS,< -0.25
4,WSIAEHAIR,< -0.25
5,WSLLALVVPAAFS,< -0.25
6,WSLSARVMKS,< -0.25
7,WSNGLPIAVTLTAGKGRLLL,< -0.25
8,WSRGRTSWN,< -0.25
9,WSTCCRCPHRGGGHAE,< -0.25
10,WTA,< -0.25
11,WTCGCRAHAMLF,< -0.25
12,WTCGVSG,< -0.25
13,WTCK,< -0.25
14,WTEDLNALHIGSGG,< -0.25
15,WTEGATGTRVRWHLSAGGK,< -0.25
16,WTGCLRERLNTPNGISVNK,< -0.25
17,WTGSAWSVRGRFERDPTSTA,0.0715
18,WTIIKEGPVLSHAGVQDDDL,< -0.25
19,WTPILFFPRLRLVRVAKQHS,< -0.25
20,WTR,< -0.25
21,WTRSRGDQRAPKIRWHRTLG,< -0.25
22,WTSNVRPRCLMAMQADCRFR,-0.239
23,WTSPLEPRRFLEYPGQAAVG,< -0.25
24,WTTNIRGTGAFETKNRLRKP,< -0.25
25,WTYPVFLSITFQPSGPSQQG,< -0.25

row,Substance,growth estimate
1,WVAG,< -0.25
2,WVCGCVDGRLKI,< -0.25
3,WVCPIGTQLCKTRL,< -0.25
4,WVGCSEHNCRSRICRAFLVP,< -0.25
5,WVGR,< -0.25
6,WVNGLLWYPGIV,< -0.25
7,WVPDSRI,< -0.25
8,WVPLTPVDPIHTIDGLCR,< -0.25
9,WVRCARLFGSAKGFSSGPWR,< -0.25
10,WVRDFSRCIRAASTATPVA,< -0.25
11,WVRSPLSHADWRSP,-0.246
12,WVSEILGITEQAVAPCP,< -0.25
13,WVSVRIGIICGAFDFWRSGA,< -0.25
14,WVYSMSMFGVLGGHVQCLLV,-0.236
15,WWDSDLLYTGVGTKPVNVCC,< -0.25
16,WWDYLSR,< -0.25
17,WWGISKFFGRESMDGRNRRW,< -0.25
18,WWKRRGAWISAGCGGSHLDD,< -0.25
19,WWLSDRLMFCF,< -0.25
20,WWRAHLCYLMAFARS,< -0.25
21,WWRVLL,< -0.25
22,WWY,< -0.25
23,WYGKPTNLVGR,< -0.25
24,WYHGKGL,< -0.25
25,WYIL,4.7

row,Substance,growth estimate
1,WYLAVLAA,< -0.25
2,WYPLTILYPPAAPHTLLSDG,< -0.25
3,WYREHDN,< -0.25
4,WYSIGCSSSRSSGFTKIMLA,-0.246
5,WYSSVIGRWCQRLV,< -0.25
6,WYV,< -0.25
7,WYVALPALSRRSYLVKISPA,< -0.25
8,WYVRSDMVQSDQTHGTVDFN,< -0.25
9,YAAAAN,< -0.25
10,YADSRHTDPNLALVR,-0.169
11,YAEWG,< -0.25
12,YAGSLISTDRQQVGLRIYCL,< -0.25
13,YAHIRRTMR,< -0.25
14,YAIGEGANRGHNSMGP,< -0.25
15,YAKPRPVTGDLYNSV,< -0.25
16,YAKVGLRPALRSFGLYHWPI,< -0.25
17,YALGDEGQTCFGCEGYTSSP,< -0.25
18,YALILPVGCCCYRRHCHLQR,< -0.25
19,YAMYGY,< -0.25
20,YANSHDFGFSPRSLVIW,< -0.25
21,YARGLLT,< -0.25
22,YARMV,< -0.25
23,YARVS,< -0.25
24,YARWIGTLAFLALNPATYFR,< -0.25
25,YASYYSSWEYWNPRPRRCNN,< -0.25

row,Substance,growth estimate
1,YAVGMGSGGGRVLVKTQSTR,< -0.25
2,YAYGTVGNAPRRGSRFSGIG,< -0.25
3,YCAAYRAIHVELTTKGNRPY,< -0.25
4,YCAMDATRRLRASTDCRIFH,< -0.25
5,YCDADRVSEARASGQPYDVA,< -0.25
6,YCFL,< -0.25
7,YCGIRSYSPMIARTVLPHVG,< -0.25
8,YCICGKKCTHYSRL,< -0.25
9,YCLAALSSGLNIEMISVGRK,< -0.25
10,YCLTRSQSSWLRGGLSAVSM,< -0.25
11,YCNFSMTTVQVGAGVPWNGL,< -0.25
12,YCNKSSPCGMRLIGVRTVPV,0.17
13,YCSFYLSR,< -0.25
14,YCSRNGTALSSR,< -0.25
15,YCT,< -0.25
16,YDATSGRRRDILFAVDSPGM,< -0.25
17,YDKQLRGALKKQQVLPEAKS,-0.246
18,YDKVNS,-0.246
19,YDPIARGCEATAYY,< -0.25
20,YDQECEFDPTVRVYLSARSA,< -0.25
21,YDQVLKGVVRLKVRVKTGPG,< -0.25
22,YDRANQYLKVYLAPWAVLLH,< -0.25
23,YDRETLGRKCPGS,< -0.25
24,YDSLRHTSTFCNSAPERG,-0.191
25,YDSRSYGVLAILAR,< -0.25

row,Substance,growth estimate
1,YDSTSVSPTLSDCYAVDLSD,< -0.25
2,YDVIPNTYSTIQFPFGCRVF,< -0.25
3,YEA,< -0.25
4,YEGLPID,< -0.25
5,YEHRRVFAVDSFRRTNSLPP,< -0.25
6,YEP,< -0.25
7,YEPARRDGNVGVWIT,< -0.25
8,YEPLVIR,< -0.25
9,YETCACWPPGQWMTPEPQGL,< -0.25
10,YEVIRASRNFNRTLALTGDT,< -0.25
11,YEVWTQGLKTPRCTRLVSGS,< -0.25
12,YEWYLRSFGLRYG,< -0.25
13,YEY,< -0.25
14,YEYTNMRSRATHN,< -0.25
15,YFDVGIHMAH,< -0.25
16,YFGCHNIRKRYIIKHLDAPP,< -0.25
17,YFIGSLSHAGETKRNPLAPP,< -0.25
18,YFLVIPWA,< -0.25
19,YFLYVRARTERGGMSWFNLQ,< -0.25
20,YFPKAWPVRAMFRAVYRLRN,< -0.25
21,YFPSGGVIGPDYHVCRLIVS,< -0.25
22,YFPYINLLLAARYLRFRVRT,-0.231
23,YFRLKVGWIDVER,< -0.25
24,YFSRP,< -0.25
25,YGANTFHDSTQHFSSQWARS,< -0.25

# For reference, part of the list above:
row,Substance,growth estimate
1,YDSTSVSPTLSDCYAVDLSD,< -0.25
2,YDVIPNTYSTIQFPFGCRVF,< -0.25
3,YEA,< -0.25
4,YEGLPID,< -0.25
5,YEHRRVFAVDSFRRTNSLPP,< -0.25
